According to patent US11525133:
Results are given in words; binding and its absence hold for the method and conditions named. Some binding calls cover weakened binding; strength is not graded here.

B1: 1TBP-CTPR2 (designed binder)
chain: MGSAEAWYNLGNAYYKQGDYQKAIEYYQKALELDPNNREAGDGEEDPRSAEAWYNLGNAYYKQGDYQKAIEYYQKALELDPRS
B2: 2TBP-CTPR4 (designed binder)
chain: MGSAEAWYNLGNAYYKQGDYQKAIEYYQKALELDPNNREAGDGEEDPRSAEAWYNLGNAYYKQGDYQKAIEYYQKALELDPRSAEAWYNLGNAYYKQGDYQKAIEYYQKALELDPNNREAGDGEEDPRSAEAWYNLGNAYYKQGDYQKAIEYYQKALELDPRS
B3: 3TBP-CTPR6 (designed binder)
chain: MGSAEAWYNLGNAYYKQGDYQKAIEYYQKALELDPNNREAGDGEEDPRSAEAWYNLGNAYYKQGDYQKAIEYYQKALELDPRSAEAWYNLGNAYYKQGDYQKAIEYYQKALELDPNNREAGDGEEDPRSAEAWYNLGNAYYKQGDYQKAIEYYQKALELDPRSAEAWYNLGNAYYKQGDYQKAIEYYQKALELDPNNREAGDGEEDPRSAEAWYNLGNAYYKQGDYQKAIEYYQKALELDPRS

Target: T1, TNKS2 ARC4 (UniProt Q9H2K2)
T1 sequence (looked up): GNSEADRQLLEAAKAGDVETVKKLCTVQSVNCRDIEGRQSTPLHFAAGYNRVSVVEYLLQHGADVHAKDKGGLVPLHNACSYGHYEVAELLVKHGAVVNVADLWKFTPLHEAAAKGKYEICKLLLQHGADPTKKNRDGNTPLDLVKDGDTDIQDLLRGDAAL
Experiment: ITC; TNKS2 ARC4 titrated into the TBP-CTPR

binding, binds:
B1
B2
B3

Target: T1, TNKS2 ARC4
Experiment: ITC

binding, binds:
B1
B2
B3
